Results on 2 substances are retold here after paper PMC5931534.

The chains behind the UniProt entries cited, without tags or fusion partners. Where a name states a change or a piece, a line headed by the entry shows the natural chain unless it says otherwise.
UniProt Q6ZNE5: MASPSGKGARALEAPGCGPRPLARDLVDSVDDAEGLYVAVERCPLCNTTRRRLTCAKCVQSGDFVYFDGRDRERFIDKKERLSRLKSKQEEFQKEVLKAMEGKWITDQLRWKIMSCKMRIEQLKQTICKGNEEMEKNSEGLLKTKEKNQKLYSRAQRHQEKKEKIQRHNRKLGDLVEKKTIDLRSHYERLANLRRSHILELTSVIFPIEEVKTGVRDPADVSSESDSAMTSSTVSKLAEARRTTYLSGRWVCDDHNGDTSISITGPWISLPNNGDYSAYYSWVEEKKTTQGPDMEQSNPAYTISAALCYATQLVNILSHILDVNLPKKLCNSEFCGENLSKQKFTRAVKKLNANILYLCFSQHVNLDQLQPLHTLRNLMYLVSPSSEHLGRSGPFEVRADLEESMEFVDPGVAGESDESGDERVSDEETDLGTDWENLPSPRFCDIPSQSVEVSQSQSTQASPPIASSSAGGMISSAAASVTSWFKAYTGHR
UniProt Q9UIK4: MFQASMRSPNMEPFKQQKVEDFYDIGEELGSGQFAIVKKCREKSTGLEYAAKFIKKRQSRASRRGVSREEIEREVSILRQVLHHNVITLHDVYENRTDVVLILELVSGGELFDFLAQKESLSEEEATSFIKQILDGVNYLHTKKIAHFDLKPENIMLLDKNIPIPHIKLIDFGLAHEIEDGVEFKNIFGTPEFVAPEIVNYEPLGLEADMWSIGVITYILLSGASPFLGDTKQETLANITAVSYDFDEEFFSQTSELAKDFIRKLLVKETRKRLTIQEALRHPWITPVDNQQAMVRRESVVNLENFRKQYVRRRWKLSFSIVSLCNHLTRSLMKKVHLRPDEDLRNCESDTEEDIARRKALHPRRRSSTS

These are yes or no findings as the source states them, for the method shown. For part of these data: Binding seen in cells or lysates may run through a third protein. Some results given as binding are weak or reduced against the parent protein; the word gives no strength.

In one assay the target is Atg14-HA (UniProt Q6ZNE5). Nature of the assay: co-IP; HEK293T cells transfected with Atg14-HA (or empty vector) and FLAG-DAPK2; anti-HA immunoprecipitates resolved by SDS-PAGE and blotted.
The next assay concerns the target FLAG-DAPK2 WT (UniProt Q9UIK4). Nature of the assay: SDS-resistant dimer band on SDS-PAGE; FLAG-DAPK2 overexpressed in HEK293T cells; anti-FLAG immunoprecipitate stained with GelCode Blue, or lysate blotted with anti-FLAG; dimer band around 90 kDa.
Assay [1] addresses L1 and L2-fused DAPK2 WT (human (cDNA library from HEK293 cells)) (UniProt Q9UIK4). Nature of the assay: split reporter; Protein Complementation Assay: Gaussia luciferase fragments L1 (amino acids 1-93) and L2 (94-169) fused to the two proteins, transfected in pairs into HEK293T cells; cells lysed and luminescence measured.

As for “FLAG-DAPK2 WT (from UniProt Q9UIK4-1 1-370) (enzyme)”, the binding result in the assay with Atg14-HA and with FLAG-DAPK2 WT was “binds” in each case. Regarding “L1 and L2-fused DAPK2 WT (from UniProt Q9UIK4-1 1-370) (enzyme)”, the binding result in assay [1] is on record as “binds”.
